Measured values published in PubChem BioAssay AID540256 (National Center for Advancing Translational Sciences (NCATS), 2011).
Screen size: about 300,000 compounds; about 3,700 (1.2%) were called active. The shares of active, inactive and inconclusive entries below differ from those in the screen. Calls come from the whole dose curve; tested in HEK293 cells. A potency beside an inconclusive call is a rough fit, not a confirmed value.

Experiment: qHTS for Inhibitors of binding or entry into cells for Lassa Virus; note: nearly all actives have a fitted effect of over 50% in size
Conditions: Lassa virus pseudotype entry inhibition, cell reporter; series mostly up to 37.9 µM
Potency is the fitted concentration of half-maximal effect.

| Compound | Potency |
| --- | --- |
| N=c1n(Cc2ccccc2)c2ccccc2n1Cc1ccccc1 | inconclusive: 2.24 µM [inhibitor, partial curve, poor fit] |
| CC(=O)c1c(C)n(-c2ccccc2)c2ccc(OCC(O)CN3CCOCC3)cc12 (configuration not stated) | inconclusive: 23.1 µM [inhibitor, partial curve, poor fit] |
| Cc1cccc(NC(=S)N2CCOCC2)c1C | inactive |
| CC(C(=O)NC1CCCC1)N(C(=O)Cn1nnc(-c2ccc(F)cc2)n1)c1ccccc1F (configuration not stated) | inconclusive: 20.6 µM [inhibitor, partial curve, poor fit] |
| COc1cc(OC)cc(C(=O)N/N=C/c2ccc(OC)c(COc3ccc(F)cc3)c2)c1 | inconclusive: 8.91 µM [inhibitor, partial curve] |
| COc1cccc(C2CC(c3ccccc3)=NN2S(=O)(=O)c2ccc(C)cc2)c1OC (configuration not stated) | inconclusive: 3.55 µM [inhibitor, full curve, poor fit] |
| O=[N+]([O-])c1ccc(NNC(=S)Nc2ccc(F)cc2)cc1 | inconclusive: 0.058 µM [activator, full curve, poor fit] |
| Cc1[nH]c2ccc(C(=O)N3CCN(Cc4ccccc4)CC3)cc2c1C | inconclusive: 5.01 µM [inhibitor, full curve, poor fit] |
| CC1CCCN(CCOCCSc2ccccc2)C1 (configuration not stated) | inconclusive: 9.2 µM [inhibitor, partial curve, poor fit] |
| NC(=O)C(c1ncc(C(F)(F)F)cc1Cl)c1c(Cl)cccc1Cl (configuration not stated) | inconclusive: 29.1 µM [activator, single point] |
| O=C(Nc1ccon1)c1cc2ccccc2oc1=O | inconclusive: 23.1 µM [activator, single point] |
| COC(=O)C(Cc1ccccc1)NC(=O)CNC(=O)c1sc2ccccc2c1Cl (configuration not stated) | inactive |
| Cc1ccc(C)c(Cn2c(=O)n(-c3ccccc3)c(=O)c3c4c(sc32)CCCC4)c1 | inconclusive: 0.316 µM [activator, full curve, poor fit] |
| COc1ccc(CCN2C(=O)N(c3cccc(OC)c3)C(=O)C2CC(=O)Nc2ccccc2)cc1 (configuration not stated) | inconclusive: 3.55 µM [inhibitor, partial curve, poor fit] |
| Cc1ccc(/C=N\NC(=O)CC(=O)NCCc2ccccc2)cc1 | inactive |
| CN(C(=O)c1ccc(C#N)cc1)c1nnc(-c2ccccn2)s1 | inconclusive: 22.4 µM [activator, partial curve, poor fit] |
| COc1ccc2sc3ccccc3c(=O)c2c1 | inconclusive: 2.51 µM [activator, partial curve, poor fit] |

As a working copy, 2 of the compounds above:

| Compound | Potency |
| --- | --- |
| COC(=O)C(Cc1ccccc1)NC(=O)CNC(=O)c1sc2ccccc2c1Cl (configuration not stated) | inactive |
| Cc1ccc(C)c(Cn2c(=O)n(-c3ccccc3)c(=O)c3c4c(sc32)CCCC4)c1 | inconclusive: 0.316 µM [activator, full curve, poor fit] |
